In paper PMC7819943, “Rice protein-binding microarrays: a tool to detect cis-acting elements near promoter regions in rice”:
The other results are listed elsewhere or left out.

molecular target: T1, OsSMF1 (Oryza sativa, UniProt Q6ZLB0 1-436); experiment: protein-binding microarray (RPBM); PBS, 2% BSA, 51.3 ng/ul salmon testes DNA, 50 uM zinc acetate, 200 nM TF, 25 C, 1 h; high values mean tight binding; settings: protein: recombinant; tags: N-terminal polyhistidine and DsRed monomer fusion (pET32a); chain copies: 2; label: CyDye5-dUTP incorporated in the synthesized complementary strand; 3' TTTTT single-stranded linker to array surface; dsDNA, one strand shown
T1 sequence: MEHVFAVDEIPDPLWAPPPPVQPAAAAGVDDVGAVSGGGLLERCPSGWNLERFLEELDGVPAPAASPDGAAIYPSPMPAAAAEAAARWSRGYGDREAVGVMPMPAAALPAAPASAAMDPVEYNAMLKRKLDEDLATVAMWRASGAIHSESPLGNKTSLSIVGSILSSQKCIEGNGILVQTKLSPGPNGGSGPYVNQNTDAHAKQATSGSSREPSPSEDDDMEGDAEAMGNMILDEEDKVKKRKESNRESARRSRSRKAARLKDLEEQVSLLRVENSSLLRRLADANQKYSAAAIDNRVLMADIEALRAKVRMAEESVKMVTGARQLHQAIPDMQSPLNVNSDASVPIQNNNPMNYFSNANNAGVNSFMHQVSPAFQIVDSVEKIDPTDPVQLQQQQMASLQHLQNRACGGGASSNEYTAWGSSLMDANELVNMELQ
Procedure, shortened: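 For the binding signal, per-feature fluorescence intensity was read in arbitrary units on an Axon 4000B scanner. Before scanning, a 2% BSA-blocked custom Agilent array made double-stranded with Cy5-dUTP was washed after 1 h at 25 °C with 200 nM protein and 50 µM zinc acetate. The proteins were Ni–NTA-purified transcription factors with N-terminal polyhistidine and DsRed fusions, expressed in E. coli BL21-CodonPlus.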

Row | Sequence | binding signal
1 | TCGCCGGCGGCCCGTCAGGCCGAAAGCGCCACGTGGGCGGCGGAGTCACCTAGTGCAG | 6460 fluorescence intensity (a.u.)
2 | TTACCGGGCGTTGCTGAGAGGATGTATCAACTCTAGCAATCGGAGTCACCTAGTGCAG | 11200 fluorescence intensity (a.u.)
3 | GCGGTTTATATATACATACACACACACATAATCCGTGCTGCGGAGTCACCTAGTGCAG | 3270 fluorescence intensity (a.u.)
4 | CGCTCTGCCGTCCGGCTCTCCGCGCGATGCTACGTGGCCGCGGAGTCACCTAGTGCAG | 5480 fluorescence intensity (a.u.)
5 | CTTGGTGGTCAGAGTGACAAACATTCTATATCCTTTGTCTCGGAGTCACCTAGTGCAG | 36600 fluorescence intensity (a.u.)
6 | TTATTAGCAACCGATAAGTGTTTCATCAGCAATTATATATCGGAGTCACCTAGTGCAG | 3480 fluorescence intensity (a.u.)
7 | AACAGAAGAGCCCACCTAGTCCACCTTGTTTCTTTCTCTCCGGAGTCACCTAGTGCAG | 4180 fluorescence intensity (a.u.)
8 | TGAATGGATAGACGATCGAGTAGATGACACGTACGGCTGCCGGAGTCACCTAGTGCAG | 5360 fluorescence intensity (a.u.)
9 | ACTGGTTTCGTAAGTTGGGAGACCCGTCATACCTGGTTTTCGGAGTCACCTAGTGCAG | 4250 fluorescence intensity (a.u.)
10 | AGTTAGATCCGTGTCACATTTCATGTTTTGTCCTCATTCTCGGAGTCACCTAGTGCAG | 3460 fluorescence intensity (a.u.)
11 | TAGCTAGCTTGCGAGTGACACGTCACCCACACGCACGCACCGGAGTCACCTAGTGCAG | 24000 fluorescence intensity (a.u.)
12 | ATATAGCATGTCAAGATATTTGGGTGATATGTACTATGTACGGAGTCACCTAGTGCAG | 4580 fluorescence intensity (a.u.)
13 | CCCCTCTTATAACGCGTCGCCTTCCCTTCGCCATGTCCGTCGGAGTCACCTAGTGCAG | 18400 fluorescence intensity (a.u.)
14 | ACAGTTTGTTAGCCAGCCATTTGATTGTGACTTGCCATATCGGAGTCACCTAGTGCAG | 3410 fluorescence intensity (a.u.)
15 | GTTCATGGCGGCGTCGAACGTGTCCCTGATGTAGCCGACGCGGAGTCACCTAGTGCAG | 3270 fluorescence intensity (a.u.)
16 | ATGGAACGACCACGTCATCTCAAAAGGTGAATCCATACATCGGAGTCACCTAGTGCAG | 11600 fluorescence intensity (a.u.)
17 | ACTAGCAGTGAAAGCAAATGCAACTCTGCAACTGCAAAGTCGGAGTCACCTAGTGCAG | 10600 fluorescence intensity (a.u.)
18 | TCCTTTCCACCAATCCACCCTGCCACCTCGGCTCCCACCGCGGAGTCACCTAGTGCAG | 4090 fluorescence intensity (a.u.)
19 | GTGTATAATTCGCATGTCCCTGCACCGCCTAACATGCTGACGGAGTCACCTAGTGCAG | 3250 fluorescence intensity (a.u.)
20 | GGCGAGAGCATCGGTGTTGGTGACGAGGGTCGTAGATCCACGGAGTCACCTAGTGCAG | 4190 fluorescence intensity (a.u.)
21 | TGGGTCGGCATCCTCGGTGTTGATAGTTATAGCCCAGTAGCGGAGTCACCTAGTGCAG | 3280 fluorescence intensity (a.u.)
22 | TTTACATCACAAAAGAATTACCGGCCCCAACAAAATAATACGGAGTCACCTAGTGCAG | 18600 fluorescence intensity (a.u.)
23 | GTGCCATGCCAGGGAAGCTTTGAGGTGCCACGTGGCCCAACGGAGTCACCTAGTGCAG | 18800 fluorescence intensity (a.u.)
24 | GCCCAACTACCGTTCTCGTATGACAGTGCAAATGTCATGCCGGAGTCACCTAGTGCAG | 4130 fluorescence intensity (a.u.)
25 | CCACGAGATACTACTATCGCCGCCGCCGCGGGCGTGGCGCCGGAGTCACCTAGTGCAG | 3830 fluorescence intensity (a.u.)
26 | GAGAGAGAGAGAGAGAAAGCGCCACGCCCGCGATATTATTCGGAGTCACCTAGTGCAG | 3180 fluorescence intensity (a.u.)
27 | GAGAAGGCGAGGCGGCGCTGGCGAGCGGTGAAAGGATGGGCGGAGTCACCTAGTGCAG | 5090 fluorescence intensity (a.u.)

Some of the entries above, reformatted.

| Row | Sequence | binding signal |
| --- | --- | --- |
| 14 | ACAGTTTGTTAGCCAGCCATTTGATTGTGACTTGCCATATCGGAGTCACCTAGTGCAG | 3410 fluorescence intensity (a.u.) |
| 15 | GTTCATGGCGGCGTCGAACGTGTCCCTGATGTAGCCGACGCGGAGTCACCTAGTGCAG | 3270 fluorescence intensity (a.u.) |

Further entries.

Row | Sequence | binding signal
28 | TAGCAAGTACTCCTACGTGCATACCACAGCCTGCTATCTTCGGAGTCACCTAGTGCAG | 3450 fluorescence intensity (a.u.)
29 | AAGTTGAAACCGCGGCGTCATCATCATCTCGATATTCACCCGGAGTCACCTAGTGCAG | 5580 fluorescence intensity (a.u.)
30 | TAAAATTTAAATTTTGGCTAATAAGTATAAGCATAACTGTCGGAGTCACCTAGTGCAG | 34300 fluorescence intensity (a.u.)
31 | GTGTGTGTGTGTGTGTGTGTGTGTGAGAGAGAGAGAGAGACGGAGTCACCTAGTGCAG | 3250 fluorescence intensity (a.u.)
32 | TGTGGCGAGCAGGTGACAAGCACACGTACGTGAGGGTAATCGGAGTCACCTAGTGCAG | 3470 fluorescence intensity (a.u.)
33 | AAGATGAAACTGACACATGCACCACTCCCTCTCTTTCTCTCGGAGTCACCTAGTGCAG | 4840 fluorescence intensity (a.u.)
34 | GGTGTGAGTGTGATGTTGCTCGTGTAATGATGCGTGTGCGCGGAGTCACCTAGTGCAG | 5000 fluorescence intensity (a.u.)
35 | GCCTCAAAGGCCCACGTGGGGCCCAAGTAAATTTCGGCCCCGGAGTCACCTAGTGCAG | 5830 fluorescence intensity (a.u.)
36 | CCACCACGCGAACGACGACTCGATCAACATCACCAGCCAGCGGAGTCACCTAGTGCAG | 3170 fluorescence intensity (a.u.)
37 | ATCCAAATTGGACCCATCTAGTTGCCCCGGCCCAACACGGCGGAGTCACCTAGTGCAG | 17700 fluorescence intensity (a.u.)
38 | CGAGCTGCTTAAACCTAACTCCACCTCTAGTTCATTTTGTCGGAGTCACCTAGTGCAG | 3380 fluorescence intensity (a.u.)
39 | TGAACAAACAAATACTAGTCACCGTCACGTTCGCTAGAGCCGGAGTCACCTAGTGCAG | 4910 fluorescence intensity (a.u.)
40 | GGTGACAATTGTCATTTGCTCAGCAACTAACATTACTAAACGGAGTCACCTAGTGCAG | 18200 fluorescence intensity (a.u.)
41 | TGCACCATTGCCCTCAAGGGATGGTGTTGGTAGGACACATCGGAGTCACCTAGTGCAG | 21700 fluorescence intensity (a.u.)
42 | GTCAGCGGTTGGTGCCGCACAATTGTCTTTAAATTATTTGCGGAGTCACCTAGTGCAG | 3350 fluorescence intensity (a.u.)
43 | GTATGTGTACTCTTGCTGTGATGTGTGGTCGATCGAGTCACGGAGTCACCTAGTGCAG | 5110 fluorescence intensity (a.u.)
44 | GAACATATGACGTTTGCTGCTTGTACAAAGGAATCCCCTCCGGAGTCACCTAGTGCAG | 3720 fluorescence intensity (a.u.)
45 | GCATCACACACTCGTCAGCAACACGTCTTACATATTTCACCGGAGTCACCTAGTGCAG | 11300 fluorescence intensity (a.u.)
46 | CGTGGACAAAATGACAAACGATAGGGTGACATGACACACCCGGAGTCACCTAGTGCAG | 4090 fluorescence intensity (a.u.)
47 | GTCATATGATTTCCACGTGTCATTAACCTATGAAAGTGTGCGGAGTCACCTAGTGCAG | 15800 fluorescence intensity (a.u.)
48 | TCTCCTCTAATCTTTCTTCCAGCTCACCAAAGAAATCCACCGGAGTCACCTAGTGCAG | 3300 fluorescence intensity (a.u.)
49 | TGATTGTGTGATTGATGATTAGTGTGTGTATGACTGTATCCGGAGTCACCTAGTGCAG | 6180 fluorescence intensity (a.u.)
50 | CTCGTCTTCAGAAACAAAAGATGACTGTTGTTGTTGGCCACGGAGTCACCTAGTGCAG | 4000 fluorescence intensity (a.u.)
51 | TTCCATTCTACTCCGGCCATGGCCTACGGCGCTCAGCACGCGGAGTCACCTAGTGCAG | 3530 fluorescence intensity (a.u.)
52 | CGTGCGACCCAGATCTCGCCACGTATGCGCGCGGATCGGCCGGAGTCACCTAGTGCAG | 10800 fluorescence intensity (a.u.)
53 | TATAGCTAACCGAACTATTAATTGCGTGTACAACAAAATACGGAGTCACCTAGTGCAG | 3180 fluorescence intensity (a.u.)
54 | AAATCAGTCATCATATATAAAGTACTATTTATGTTTTATCCGGAGTCACCTAGTGCAG | 3730 fluorescence intensity (a.u.)
